Data source: PubChem BioAssay AID743454 (Peter MacCallum Cancer Centre, 2014)
In all, the deposit lists about 18,000 reagents; shown is a random part of them. Over the whole deposit, 450 (2.5%) got an active call. 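Single biological run; no consistent viability z cut-off exists, so the class columns, not z-scores, define the calls.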

- Purpose: 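Search for knock-downs that restore vorinostat killing in resistant colon cancer cells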 (primary screen)
- Cell system: human HCT116-VR colon cancer cells, selected for vorinostat resistance
- Reagent: siRNA pool against human genes, 40 nM siRNA pool
- Time to read-out: vorinostat for 24 h, read-out about 72 h after transfection
- Challenge: vorinostat at 2.5 µM final
- Measured: 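Two measures, CellTiter-Fluor viability and luminescent caspase 3/7 activity, each as fold change against same-plate mock wells, mean of duplicates, then screen-wide robust z-score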
- Reading the numbers: viability robust z-score: higher = more viable cells than screen typical; caspase robust z-score: higher = more caspase 3/7 activity than screen typical
- Rule for the call: 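a knock-down is a hit when classed RV1 or RV2 for lowered viability, or CA1 or CA2 for caspase activation; those lethal without drug were dropped; hits were retested singly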

target gene | viability hit class | caspase hit class | viability robust z-score | caspase robust z-score | activity call
MIER1 (GeneID 57708) | no change | no change | -0.73 | 0.16 | inactive
CDO1 (GeneID 1036) | no change | no change | -0.41 | -0.11 | inactive
KIFC3 (GeneID 3801) | no change | no change | -0.88 | -0.38 | inactive
GSTM1 (GeneID 2944) | no change | no change | -0.43 | -0.02 | inactive
KCNS1 (GeneID 3787) | no change | no change | 0.49 | -0.25 | inactive
TMEM145 (GeneID 284339) | no change | no change | 0.02 | 0.58 | inactive
OLFM4 (GeneID 10562) | no change | no change | 0.77 | -0.81 | inactive
CYB5R2 (GeneID 51700) | no change | no change | 1.65 | 0.56 | inactive
SLC12A5 (GeneID 57468) | no change | no change | -0.01 | -0.79 | inactive
MCM6 (GeneID 4175) | no change | no change | -0.3 | -0.48 | inactive
PPIA (GeneID 5478) | no change | no change | 0.1 | 0.04 | inactive
CSF2 (GeneID 1437) | no change | no change | -1.22 | 4.02 | inactive
MELK (GeneID 9833) | no change | no change | 0.73 | -0.1 | inactive
PLSCR3 (GeneID 57048) | no change | no change | 0.09 | 1.07 | inactive
GATD3 (GeneID 8209) | no change | no change | 0.08 | 0.46 | inactive
PRAP1 (GeneID 118471) | no change | no change | -0.86 | -0.03 | inactive
SARNP (GeneID 84324) | no change | no change | -0.17 | -0.32 | inactive
SYNGR4 (GeneID 23546) | no change | no change | -0.01 | 3.67 | inactive
DSTN (GeneID 11034) | no change | no change | -0.59 | 0.76 | inactive
RREB1 (GeneID 6239) | no change | no change | 0.49 | -0.48 | inactive
POLB (GeneID 5423) | no change | no change | 1 | -0.59 | inactive
MAP2K4 (GeneID 6416) | no change | no change | 1.48 | -0.76 | inactive
ANGPTL2 (GeneID 23452) | no change | no change | 0.39 | -0.12 | inactive
PLAG1 (GeneID 5324) | no change | CA2 (caspase activation) | -2.7 | 5.63 | active
RHEBL1 (GeneID 121268) | no change | no change | 0.93 | 0.01 | inactive
OR52B6 (GeneID 340980) | no change | no change | 0.46 | -0.6 | inactive
SLC2A11 (GeneID 66035) | no change | no change | -0.63 | 3.09 | inactive
ICOSLG (GeneID 23308) | no change | no change | -0.26 | 0.22 | inactive
HELQ (GeneID 113510) | no change | no change | 1.48 | -0.16 | inactive
PMFBP1 (GeneID 83449) | no change | no change | 0.83 | -0.11 | inactive
BCKDHB (GeneID 594) | no change | no change | 0.27 | -0.64 | inactive
ARAP2 (GeneID 116984) | no change | no change | 1.18 | -0.18 | inactive
AP1S3 (GeneID 130340) | no change | no change | 1.21 | -0.66 | inactive
SLC22A25 (GeneID 387601) | no change | no change | 0.01 | 0.99 | inactive
ENPP1 (GeneID 5167) | no change | no change | 0.61 | -0.49 | inactive
NMT2 (GeneID 9397) | no change | no change | 1.33 | 0.64 | inactive
ZNF438 (GeneID 220929) | no change | no change | -0.92 | 3.88 | inactive
LCNL1 (GeneID 401562) | no change | no change | -1.56 | 4.66 | inactive
NAGLU (GeneID 4669) | no change | no change | -1.72 | 1.21 | inactive

A few values from above.
Value of SLC2A11 (GeneID 66035) in “caspase hit class”: no change
Value for RHEBL1 (GeneID 121268) under “caspase hit class”: no change
For “caspase robust z-score”, TMEM145 (GeneID 284339) has 0.58
SLC22A25 (GeneID 387601), caspase hit class: no change
Under “viability robust z-score”, KCNS1 (GeneID 3787) reads 0.49
Entry for AP1S3 (GeneID 130340) in “caspase hit class”: no change
